From patent US20210214432A1 (Y BIOLOGICS, published 2021)
Changes are numbered by the printed parent chain. These are yes or no findings as the source states them, for the method shown. Some results given as binding are weak or reduced against the parent protein; the word gives no strength. Where a sequence is shown, tags or fusion partners need not be part of it.

T1: mouse DLK1 hFc fusion protein (mouse) (UniProt Q09163)
T1 sequence (looked up): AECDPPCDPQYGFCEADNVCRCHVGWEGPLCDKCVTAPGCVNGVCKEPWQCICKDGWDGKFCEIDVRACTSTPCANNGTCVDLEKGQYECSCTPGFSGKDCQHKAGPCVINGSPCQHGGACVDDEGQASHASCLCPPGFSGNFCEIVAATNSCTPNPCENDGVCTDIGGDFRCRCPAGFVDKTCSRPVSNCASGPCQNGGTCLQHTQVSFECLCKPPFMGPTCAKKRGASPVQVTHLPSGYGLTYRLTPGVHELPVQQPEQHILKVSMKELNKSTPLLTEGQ

B1: human anti-DLK1 monoclonal antibody 35E2 (antibody, V domains shown)
VH: QVQLVESGGGVVQPGRSLRLSCAASGFTFSSYAMHWVRQAPGKGLEWVAVIYSGGSTYYADSVKGRFTISRDNSKNTLYLQMNSLRAEDTAVYYCAREGSYDVMTYTRIGGYFDYWGQGALVTVSS
VL: DIQMTQSPSSVSASVGDRVTITCRASQGISDWVAWYQQKPGKAPKLLIYAASSLQSGVPSRFSGSGSGTEFSLTISNLQPEDFATYYCQQANSFPLTFGPGTKVEIK
notes: Converted from scFv to IgG
B2: human anti-DLK1 monoclonal antibody 18A5 (antibody, V domains shown)
VH: QVQLVQSGGAVVQPGHSLRLSCEASGFKFKDYGMHWVRQAPGKGLEWLAVISHDGRNKNYADSVKGRLTISRDNSKNTLSFQMNSLRAEDTAVYYCVRDWSYAFDIWGQGTLVTVSS
VL: DIQMTQSPSFLSASVGDRVNITCRASQDISRRLAWYQQKPGKAPKLLIYGAASLQSAVASRFSGSGSGTEFTLTISSLQPEDFANYYCQQIYTTPLTFGGGTKVEIK
notes: Converted from scFv to IgG; also called DLK1-18A5
B3: human anti-DLK1 monoclonal antibody variant 18A5_AM_1A12 (antibody, V domains shown)
VH: B2 VH with A10G, H16G, E23A
VL: DIQMTQSPSFLSASVGDRVTITCRASHDISSSLAWYQQKSGKAPKLLIYSASNLKSGVPSRFSGSGSGTDFSLTISSLQPEDFATYYCQQSYTTVLTFGGGTKLEIK
B4: human anti-DLK1 monoclonal antibody variant 18A5_LS_1A10 (antibody, V domains shown)
VH: B2 VH
VL: DIQMTQSPSSLSASLGDRVTITCRASQGISSALAWYQQKPGKAPKLLIYAASSLQSGVPSRFSGSGSGTDFTLTINSLQPEDFATYYCQQSYTTPLTFGGGTKVEIK

target: T1, mouse DLK1 hFc fusion protein (mouse); experiment: ELISA on hFc fusion proteins of human, mouse and monkey DLK1

Row | binding | Binder
1 | binds | B1
2 | binds | B3
3 | binds | B4

Row | Binder | binding
4 | B2 | binds
